Source: the supplement of paper PMC9578143, “Small-Molecule Ebselen Binds to YTHDF Proteins Interfering with the Recognition of N^6-Methyladenosine-Modified RNAs” (ACS Pharmacology & Translational Science, 2022)
The list shows a part of the results. Part of the spread comes from offsets between plates or batches.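 Hits were defined as a z-score below −3.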

What follows are compounds tested against T1, YTHDF1 YTH domain (aa 365-554) (UniProt Q9BYJ9) (assay: tryptophan fluorescence intensity z-score (mean); higher = higher fluorescence, less quenching (negative = binding / quenching)). Conditions: 10 µM.
T1 sequence (whole entry): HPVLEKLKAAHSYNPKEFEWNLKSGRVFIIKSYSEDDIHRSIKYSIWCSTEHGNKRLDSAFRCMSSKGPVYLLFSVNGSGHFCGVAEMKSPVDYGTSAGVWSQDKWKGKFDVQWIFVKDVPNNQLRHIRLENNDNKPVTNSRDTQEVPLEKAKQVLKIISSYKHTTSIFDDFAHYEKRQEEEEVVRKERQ

Tryptophan fluorescence intensity z-score, inactive:
CCN(CC)CCCC(C)Nc1c2ccc(Cl)cc2nc2ccc(OC)cc12 (configuration not stated) (plate: M 5-6) -0.206
Cc1nc(C)c(Cl)c(O)c1Cl (plate: M 9-10) -0.203
CC(=O)N1CCN(c2ccc(OCC3COC(Cn4ccnc4)(c4ccc(Cl)cc4Cl)O3)cc2)CC1 (configuration not stated) (plate: M 3-4) -0.117
C#C[C@]1(O)CC[C@H]2[C@@H]3CCc4cc(OC)ccc4[C@H]3CC[C@@]21C (plate: M 3-4) -0.142
CC(C)NCC(O)c1ccc(NS(C)(=O)=O)cc1 (configuration not stated) (plate: M 13-14) 0.0379
CO[C@H]1C[C@@H]2CC[C@@H](C)[C@@](O)(O2)C(=O)C(=O)N2CCCC[C@H]2C(=O)O[C@H]([C@H](C)C[C@@H]2CC[C@@H](O)[C@H](OC)C2)CC(=O)[C@H](C)/C=C(\C)[C@@H](O)[C@@H](OC)C(=O)[C@H](C)C[C@H](C)/C=C/C=C/C=C/1C (plate: M 9-10) -0.528
COC(=O)C[C@H]1C(C)(C)[C@@H](OC(C)=O)[C@@H]2CC3=C4CC(=O)O[C@@H](c5ccoc5)[C@]4(C)CC[C@@H]3[C@@]1(C)C2=O (plate: M 13-14) 0.633
CC(=O)O[C@@H]1C[C@@]2(C)C(CC[C@@H]2C(C)=O)C2CCC3=CC(=O)CC[C@]3(C)C21 (some centres not stated) (plate: M 19-20) 0.335
CCOC(=O)CCC(=O)O[C@H]1[C@H](O[C@@H]2[C@@H](C)[C@H](O[C@H]3C[C@@](C)(OC)[C@@H](O)[C@H](C)O3)[C@@H](C)C(=O)O[C@H](CC)[C@@](C)(O)[C@H](O)[C@@H](C)C(=O)[C@H](C)C[C@@]2(C)O)O[C@H](C)C[C@@H]1N(C)C (plate: M 3-4) -0.22
C[C@]12C=CC(=O)C=C1CC[C@@H]1[C@@H]2C(=O)C[C@@]2(C)[C@H]1CC[C@]2(O)C(=O)CO (plate: M 5-6) -0.0248
CC1(C)[C@@H](O[C@H]2O[C@H](C(=O)O)[C@@H](O)[C@H](O)[C@H]2O[C@@H]2O[C@H](C(=O)O)[C@@H](O)[C@H](O)[C@H]2O)CC[C@]2(C)[C@H]3C(=O)C=C4[C@@H]5C[C@@](C)(C(=O)O)CC[C@]5(C)CC[C@@]4(C)[C@]3(C)CC[C@@H]12 (plate: M 21-22) 0.46
CNC(=C[N+](=O)[O-])NCCSCc1csc(CN(C)C)n1 (plate: M 13-14) 0.329
O=C(O)C1=CCNCC1 (plate: M 21-22) -0.324
CCn1cc(C(=O)O)c(=O)c2cc(F)c(N3CCNC(C)C3)c(F)c21 (configuration not stated) (plate: M 7-8) 0.142
CS(=O)(=O)Nc1ccc([N+](=O)[O-])cc1Oc1ccccc1 (plate: M 21-22) 0.546
CCCCC(=O)Oc1ccccc1C(=O)O (plate: M 23-24) 0.296
CCn1cc(C(=O)O)c(=O)c2cc(F)c(N3CCN(C)CC3)cc21 (plate: M 9-10) -0.0751
C[C@@H]1O[C@@H]1P(=O)(O)O (plate: M 13-14) 0.467
Cc1ccc(C(C)C)cc2c(C)ccc1-2 (plate: M 19-20) 0.501
CN1CCN(C(c2ccccc2)c2ccc(Cl)cc2)CC1 (configuration not stated) (plate: M 1-2) 0.417
CC(=O)Nc1ccc(S(=O)(=O)Nc2ccc([N+](=O)[O-])cc2)cc1 (plate: M 13-14) 0.393
Cc1ccc(C(=O)Nc2ccc(S(=O)(=O)O)c3cc(S(=O)(=O)O)cc(S(=O)(=O)O)c23)cc1NC(=O)c1cccc(NC(=O)Nc2cccc(C(=O)Nc3cc(C(=O)Nc4ccc(S(=O)(=O)O)c5cc(S(=O)(=O)O)cc(S(=O)(=O)O)c45)ccc3C)c2)c1 (plate: M 7-8) -1.13
CC(=O)Nc1c(I)c(NC(C)=O)c(I)c(C(=O)O)c1I (plate: M 13-14) 0.374
CCc1cc(C(N)=S)ccn1 (plate: M 3-4) -0.907
CC(=O)O[C@H]1CC[C@]2(C)[C@H]3CC[C@@]4(C)[C@H](c5ccoc5)OC(=O)[C@H]5O[C@]54[C@]3(C)[C@H](OC(C)=O)C[C@H]2C1(C)C [3beta-ACETOXYDEOXODIHYDROGEDUNIN] (plate: M 13-14) 0.269
Cc1ccc2c(c1)CC[C@H]1CC(=O)CC[C@]21C (plate: M 15-16) 0.738
CNCCC=C1c2ccccc2CCc2ccccc21 (plate: M 3-4) -0.72
OC[C@H]1O[C@@H](OCCc2ccc(O)cc2)[C@H](O)[C@@H](O)[C@@H]1O (plate: M 21-22) 0.592
COc1ccc(C2CC(=O)c3ccc(OC)cc3O2)cc1 (configuration not stated) (plate: M 21-22) -0.7
C[C@H]1[C@H](NC(=O)/C(=N\OC(C)(C)C(=O)O)c2csc(N)n2)C(=O)N1S(=O)(=O)O (plate: M 9-10) -0.41
Cc1ccc(/C(=C\CN2CCCC2)c2ccccn2)cc1 (plate: M 5-6) -0.191
CC(C)(O/N=C(\C(=O)N[C@@H]1C(=O)N2C(C(=O)[O-])=C(C[n+]3ccccc3)CS[C@H]12)c1csc(N)n1)C(=O)O (plate: M 11-12) -0.352
COC1=C(O)C(=O)c2c(cc3oc(C(C)=O)c(O)c3c2O)C1=O (plate: M 19-20) 0.39
CCCc1cc(OC)c2c(c1)OCO2 (plate: M 19-20) 0.727
CC(C)(O)CC[C@@H](O)[C@](C)(O)[C@H]1CC[C@@]2(O)C3=CC(=O)[C@@H]4C[C@@H](O)[C@@H](O)C[C@]4(C)[C@H]3CC[C@]12C (plate: M 19-20) 0.424
Nc1ccc(S(=O)(=O)Nc2ccc(Cl)nn2)cc1 (plate: M 7-8) -0.0187
CC1CCC(NC(=O)N(CCCl)N=O)CC1 (configuration not stated) (plate: M 9-10) 0.303

2 compounds drawn at random from those above:
Tryptophan fluorescence intensity z-score, inactive:
O=C(O)C1=CCNCC1 (plate: M 21-22) -0.324
CO[C@H]1C[C@@H]2CC[C@@H](C)[C@@](O)(O2)C(=O)C(=O)N2CCCC[C@H]2C(=O)O[C@H]([C@H](C)C[C@@H]2CC[C@@H](O)[C@H](OC)C2)CC(=O)[C@H](C)/C=C(\C)[C@@H](O)[C@@H](OC)C(=O)[C@H](C)C[C@H](C)/C=C/C=C/C=C/1C (plate: M 9-10) -0.528
